Experimental data from the supplement of paper PMC4635364.
Structures can show the parent of a compound that is named as a salt. Some of the results follow. Repeats in this data set agree poorly, so a single value says little.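 ReNCell VM, a human fetal ventral-midbrain neural progenitor line, was differentiated without mitogens. Blinded raters scored images stained for doublecortin (early neurons) or tyrosine hydroxylase (dopaminergic neurons) against untreated wells (0 = no change). Scores were averaged across repeats and both raters, and compounds averaging 2 or more were selected as hits for retesting.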

Legend:
[1] = tested on: ReNCell VM; assay: neuronal differentiation score (DCX+ cell fraction vs untreated, manual image score) (score (-3 to 3)); higher = more neuronal differentiation; settings: 2 uM, 2 weeks
[2] = tested on: ReNCell VM; assay: dopaminergic neuron differentiation score (TH+ cell fraction vs untreated, manual image score) (score (0 to 3)); higher = more TH+ dopaminergic neuron differentiation; settings: 2 uM, 4 weeks, BDNF 10 ng/ml + GDNF 10 ng/ml

Row | SMILES | neuronal differentiation score ([1]; library: LOPAC) | neuronal differentiation score ([1]; library: Prestwick) | dopaminergic neuron differentiation score ([2]; library: LOPAC) | dopaminergic neuron differentiation score ([2]; library: Prestwick) | neuronal differentiation score ([1]; library: Tocriscreen) | dopaminergic neuron differentiation score ([2]; library: Tocriscreen)
1 | CN1CCN(CC(=O)N2c3ccccc3C(=O)Nc3cccnc32)CC1 [Pirenzepine dihydrochloride] | inactive: 0 | inactive: 0 | inactive: 1 | inactive: 0 |  | 
2 | NNCCc1ccccc1 [Phenelzine sulfate] | inactive: 0 | inactive: 0 | inactive: 0 | inactive: 1 |  | 
3 | NS(=O)(=O)c1cc2c(cc1Cl)N=CNS2(=O)=O [Chlorothiazide] | inactive: 0 | inactive: 0 | inactive: 0 | inactive: 0 |  | 
4 | Cc1ccccc1C(OCCN(C)C)c1ccccc1 (stereo not given) [Orphenadrine hydrochloride] | inactive: 0 | inactive: 0 | inactive: 0 | inactive: 0 |  | 
5 | COc1cc2c(cc1C(F)(F)F)N(C(=O)Nc1cc(F)cc(-c3cccnc3)c1)CC2 | inactive: 0 |  | inactive: 0 |  | inactive: -1 | inactive: 0
6 | O=c1n(CCCN2CCN(c3cccc(Cl)c3)CC2)nc2ccccn12 [Trazodone hydrochloride] | inactive: 0 | inactive: 0 | inactive: 0 | inactive: 0 |  | 
7 | CCCN(CCC)C(=O)C(CCC(=O)O)NC(=O)c1ccccc1 (stereo not given) [Proglumide] | inactive: 0 | inactive: 0 | inactive: 0 | inactive: 0 |  | 
8 | C(=C\c1ccccc1)/CN1CCN(C(c2ccccc2)c2ccccc2)CC1 [Cinnarizine] | inactive: 0 | inactive: 0 | inactive: 0 | inactive: 0 |  | 
9 | COc1cccc2c1C(=O)c1c(O)c3c(c(O)c1C2=O)C[C@@](O)(C(=O)CO)C[C@@H]3O[C@H]1C[C@H](N)[C@H](O)[C@H](C)O1 [Doxorubicin hydrochloride] |  | inactive: 0 |  | inactive: 0 | inactive: 0 | inactive: 0
10 | Cc1cccc(C)c1OCC(C)N (stereo not given) [Mexiletine hydrochloride] |  | inactive: 0 |  | inactive: 0 | inactive: 0 | inactive: 0
11 | COC(=O)c1c(C)[nH]c(C)c1C(=O)c1ccccc1Cc1ccccc1 | inactive: 0 |  | inactive: 0 |  | inactive: 0 | inactive: 0
12 | O=C(CCNNC(=O)c1ccncc1)NCc1ccccc1 [Nialamide] | inactive: 1 | inactive: 0 | inactive: 0 | inactive: 0 |  | 
13 | C[N+](C)(C)CCOC(N)=O [Carbachol] | inactive: -1 | inactive: 0 | inactive: 0 | inactive: 0 |  | 
14 | CN(C)CCCSC(=N)N [Dimaprit dihydrochloride] |  | inactive: 0 |  | inactive: 0 | inactive: 0 | inactive: 0
15 | Nc1c2c(nc3ccccc13)CCCC2 [Tacrine hydrochloride] |  | inactive: 0 |  | inactive: 0 | inactive: 1 | inactive: 0
16 | CNCC[C@@H](Oc1ccccc1C)c1ccccc1 [Tomoxetine hydrochloride] |  | inactive: 0 |  | inactive: 0 | inactive: 0 | inactive: 0
17 | CCn1cc(C(=O)O)c(=O)c2cc(F)c(N3CCNC(C)C3)c(F)c21 (stereo not given) [Lomefloxacin hydrochloride] | inactive: 0 | inactive: 0 | inactive: 0 | inactive: 0 |  | 
18 | O=C1NC(=O)C(c2ccccc2[N+](=O)[O-])=C1Nc1ccc(O)c(Cl)c1 | active: 3 |  | inactive: 0 |  | active: 3 | inactive: 0
19 | CN(C)C/C=C(/c1ccc(Br)cc1)c1cccnc1 [Zimelidine dihydrochloride] | inactive: 0 |  | inactive: 0 |  | inactive: 0 | inactive: 0
20 | CC(C)[N+](C)(CCOC(=O)C1c2ccccc2Oc2ccccc21)C(C)C [Propantheline bromide] | inactive: 1 | inactive: 0 | inactive: 0 | inactive: 0 |  | 
21 | Cc1cccc(/C=C/c2ccccc2)n1 | inactive: 0 |  | inactive: 0 |  | inactive: 0 | inactive: 0
22 | CCCCNC(=O)NS(=O)(=O)c1ccc(C)cc1 [Tolbutamide] | inactive: 0 | inactive: 0 | inactive: 0 | inactive: 0 |  | 
23 | CC(C)(C)NCC(O)c1cc(O)cc(O)c1 (stereo not given) [Terbutaline hemisulfate] | inactive: 0 | inactive: 0 | inactive: 0 | inactive: 0 |  | 
24 | CCCCNc1cc(C(=O)O)cc(S(N)(=O)=O)c1Oc1ccccc1 [Bumetanide] | inactive: -1 | inactive: 0 | inactive: 0 | inactive: 0 |  | 
25 | N=C(N)NC(=O)c1nc(Cl)c(N)nc1N [Amiloride hydrochloride] | inactive: 0 |  | inactive: 0 |  | active: 2 | inactive: 0

Only neuronal differentiation score ([1]; library: Tocriscreen) and dopaminergic neuron differentiation score ([2]; library: LOPAC), for some of the entries so far:
Row	SMILES	neuronal differentiation score ([1]; library: Tocriscreen)	dopaminergic neuron differentiation score ([2]; library: LOPAC)
10	Cc1cccc(C)c1OCC(C)N (stereo not given) [Mexiletine hydrochloride]	inactive: 0	
11	COC(=O)c1c(C)[nH]c(C)c1C(=O)c1ccccc1Cc1ccccc1	inactive: 0	inactive: 0
